{"sequences": {"note": "The chains behind the UniProt entries cited, without tags or fusion partners.", "UniProt O95983": "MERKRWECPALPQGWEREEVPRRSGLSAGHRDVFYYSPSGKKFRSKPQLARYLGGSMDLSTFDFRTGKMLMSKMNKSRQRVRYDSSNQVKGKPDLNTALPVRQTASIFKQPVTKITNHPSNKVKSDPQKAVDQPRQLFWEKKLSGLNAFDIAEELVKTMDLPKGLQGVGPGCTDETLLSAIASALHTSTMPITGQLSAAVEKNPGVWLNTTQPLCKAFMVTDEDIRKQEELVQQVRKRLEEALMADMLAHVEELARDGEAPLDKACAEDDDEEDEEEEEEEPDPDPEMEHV", "UniProt Q13547": "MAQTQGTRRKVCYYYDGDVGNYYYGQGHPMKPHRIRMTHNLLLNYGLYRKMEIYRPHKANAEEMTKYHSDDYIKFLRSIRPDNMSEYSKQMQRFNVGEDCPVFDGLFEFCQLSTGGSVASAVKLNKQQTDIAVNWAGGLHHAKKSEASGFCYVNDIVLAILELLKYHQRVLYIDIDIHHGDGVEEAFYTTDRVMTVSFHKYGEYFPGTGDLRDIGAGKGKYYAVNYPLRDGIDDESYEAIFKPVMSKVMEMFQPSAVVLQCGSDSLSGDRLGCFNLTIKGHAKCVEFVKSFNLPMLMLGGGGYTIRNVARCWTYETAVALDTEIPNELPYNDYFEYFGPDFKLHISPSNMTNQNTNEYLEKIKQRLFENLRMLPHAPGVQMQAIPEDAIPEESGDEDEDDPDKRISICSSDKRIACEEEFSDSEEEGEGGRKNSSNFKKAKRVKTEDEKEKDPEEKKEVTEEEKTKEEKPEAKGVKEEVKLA", "UniProt Q14839": "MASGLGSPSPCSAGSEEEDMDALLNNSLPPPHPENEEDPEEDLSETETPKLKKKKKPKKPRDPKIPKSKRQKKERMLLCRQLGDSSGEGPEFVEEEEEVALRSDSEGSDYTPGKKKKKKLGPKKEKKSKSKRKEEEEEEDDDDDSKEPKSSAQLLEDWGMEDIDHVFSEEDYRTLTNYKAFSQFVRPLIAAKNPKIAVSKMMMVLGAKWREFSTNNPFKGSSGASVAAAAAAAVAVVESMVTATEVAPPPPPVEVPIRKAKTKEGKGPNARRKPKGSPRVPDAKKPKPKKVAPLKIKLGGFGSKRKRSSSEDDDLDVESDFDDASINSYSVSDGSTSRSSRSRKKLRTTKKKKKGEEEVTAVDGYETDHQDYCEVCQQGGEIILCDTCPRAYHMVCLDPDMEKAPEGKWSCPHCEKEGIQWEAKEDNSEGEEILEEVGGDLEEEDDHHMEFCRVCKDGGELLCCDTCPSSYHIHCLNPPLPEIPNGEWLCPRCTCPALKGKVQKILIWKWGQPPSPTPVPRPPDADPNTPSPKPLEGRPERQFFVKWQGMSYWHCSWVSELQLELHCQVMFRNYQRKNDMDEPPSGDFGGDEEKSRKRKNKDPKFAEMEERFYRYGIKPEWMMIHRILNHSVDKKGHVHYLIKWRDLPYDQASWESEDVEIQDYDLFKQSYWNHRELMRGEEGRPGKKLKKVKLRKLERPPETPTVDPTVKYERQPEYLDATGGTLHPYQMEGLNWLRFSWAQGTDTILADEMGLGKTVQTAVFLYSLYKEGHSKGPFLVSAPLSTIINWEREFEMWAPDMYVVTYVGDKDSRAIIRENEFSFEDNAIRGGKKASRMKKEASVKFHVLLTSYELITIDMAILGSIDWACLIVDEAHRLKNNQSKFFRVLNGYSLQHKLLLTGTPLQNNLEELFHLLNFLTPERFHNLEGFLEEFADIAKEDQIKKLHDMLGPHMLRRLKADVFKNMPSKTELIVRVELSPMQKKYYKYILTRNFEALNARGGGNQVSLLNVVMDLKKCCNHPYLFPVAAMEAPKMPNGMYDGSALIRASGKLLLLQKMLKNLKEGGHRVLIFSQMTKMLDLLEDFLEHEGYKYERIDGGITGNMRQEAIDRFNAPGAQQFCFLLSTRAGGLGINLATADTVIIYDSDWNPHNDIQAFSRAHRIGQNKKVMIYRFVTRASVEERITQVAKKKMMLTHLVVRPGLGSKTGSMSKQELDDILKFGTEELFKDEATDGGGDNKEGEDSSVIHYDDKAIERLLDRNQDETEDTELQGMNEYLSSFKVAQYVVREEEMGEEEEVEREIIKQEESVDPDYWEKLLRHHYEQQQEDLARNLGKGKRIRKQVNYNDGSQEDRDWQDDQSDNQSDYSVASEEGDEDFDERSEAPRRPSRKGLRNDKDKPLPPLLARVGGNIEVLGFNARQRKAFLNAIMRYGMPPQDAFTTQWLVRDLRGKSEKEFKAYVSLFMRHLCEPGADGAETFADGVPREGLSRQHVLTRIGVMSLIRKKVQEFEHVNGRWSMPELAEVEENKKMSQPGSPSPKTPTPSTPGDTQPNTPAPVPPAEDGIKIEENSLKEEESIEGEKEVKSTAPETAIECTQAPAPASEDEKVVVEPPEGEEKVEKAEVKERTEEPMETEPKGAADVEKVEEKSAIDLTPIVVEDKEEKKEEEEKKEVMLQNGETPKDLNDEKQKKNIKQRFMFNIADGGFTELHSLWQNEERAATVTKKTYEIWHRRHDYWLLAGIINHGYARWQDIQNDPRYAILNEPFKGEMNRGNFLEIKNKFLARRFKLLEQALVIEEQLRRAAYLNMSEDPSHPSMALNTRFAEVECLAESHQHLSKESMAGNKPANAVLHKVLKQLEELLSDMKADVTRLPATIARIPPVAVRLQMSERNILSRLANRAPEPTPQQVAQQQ"}, "source": "paper PMC9381593", "biological_target": "Methyl-CpG binding domain protein 3 (human (endogenous in Huh7)) (UniProt O95983)", "assay": "co-IP; endogenous IP from Huh7 lysate with anti-MBD3 antibody or control IgG, overnight at 4 °C, protein A/G beads; M2 buffer (20 mM Tris-HCl pH 7.5, 250 mM NaCl, 3 mM EDTA, 3 mM EGTA, 0.5% NP-40); western blot", "note": "These are yes or no findings as the source states them, for the method shown. Binding seen in cells or lysates may run through a third protein. Some results given as binding are weak or reduced against the parent protein; the word gives no strength."}
{"substance": "Histone Deacetylases 1 (from UniProt Q13547 1-482) (enzyme)", "values": [{"measurement": "binding", "result": "binds"}]}
{"substance": "chromodomain helicase DNA binding protein 4 (from UniProt Q14839 1-1912)", "values": [{"measurement": "binding", "result": "binds"}]}
